According to US7314866:
These are yes or no findings as the source states them, for the method shown. In cells and extracts the contact can be indirect. Some binding calls cover weakened binding; strength is not graded here. For some assays here: Tags and fused reporters may be left off the sequences shown.

By UniProt entry, the sequences of proteins in these tests, tags left out.
UniProt Q07812: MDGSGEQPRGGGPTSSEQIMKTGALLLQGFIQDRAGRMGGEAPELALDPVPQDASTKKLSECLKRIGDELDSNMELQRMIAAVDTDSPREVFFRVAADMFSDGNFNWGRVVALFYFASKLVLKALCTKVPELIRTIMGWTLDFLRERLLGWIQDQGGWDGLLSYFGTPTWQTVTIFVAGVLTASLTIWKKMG

Assays:
human Bax (human) [1] = molecular target: human Bax (human) (UniProt Q07812); assay: competition in co-immunoprecipitation of Bax and Ku70, HEK293T CHAPS lysates
human Bax (human) [2] = molecular target: human Bax (human) (UniProt Q07812); assay: competition in co-immunoprecipitation of Bax and Ku70, HEK293T lysates
human Bax (human) [3] = molecular target: human Bax (human) (UniProt Q07812); assay: streptavidin bead pull-down from HEK293T CHAPS lysates, Western blot of Bax

binding (human Bax (human) [1])	binding (human Bax (human) [2])	binding (human Bax (human) [3])	Binder
binds	binds		VPMLK [VPMLK (V5; SEQ ID NO: 1) peptide]
binds	binds		PMLKE [PMLKE (P5; SEQ ID NO: 2) peptide]
		binds	VPMLK (biotin-labeled, printed as biotin-VPMLK) [Biotin-labeled BIP (biotin-VPMLK; SEQ ID NO: 1)]
